In publication PMC7862700 one finds binding signal data, which are given here for 43 sequences.

Chains of the proteins cited; added tags and fusions are not shown. Lines headed by an entry give the natural chain unless they say otherwise; changes in a name come on top.
UniProt P41161: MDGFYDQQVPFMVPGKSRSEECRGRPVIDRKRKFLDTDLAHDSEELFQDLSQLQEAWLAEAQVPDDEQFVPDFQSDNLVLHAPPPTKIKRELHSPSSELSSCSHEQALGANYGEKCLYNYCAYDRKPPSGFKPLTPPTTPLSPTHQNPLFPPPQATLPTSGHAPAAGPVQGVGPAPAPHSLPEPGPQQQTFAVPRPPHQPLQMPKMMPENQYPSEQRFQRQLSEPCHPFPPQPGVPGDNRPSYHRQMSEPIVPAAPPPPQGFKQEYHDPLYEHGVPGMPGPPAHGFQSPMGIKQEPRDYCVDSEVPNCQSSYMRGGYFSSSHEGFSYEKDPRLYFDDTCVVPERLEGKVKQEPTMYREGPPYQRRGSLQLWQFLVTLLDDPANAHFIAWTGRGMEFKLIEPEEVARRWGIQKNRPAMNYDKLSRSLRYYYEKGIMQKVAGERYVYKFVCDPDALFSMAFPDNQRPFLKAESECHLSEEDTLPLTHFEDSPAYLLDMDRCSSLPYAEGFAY
UniProt Q99607: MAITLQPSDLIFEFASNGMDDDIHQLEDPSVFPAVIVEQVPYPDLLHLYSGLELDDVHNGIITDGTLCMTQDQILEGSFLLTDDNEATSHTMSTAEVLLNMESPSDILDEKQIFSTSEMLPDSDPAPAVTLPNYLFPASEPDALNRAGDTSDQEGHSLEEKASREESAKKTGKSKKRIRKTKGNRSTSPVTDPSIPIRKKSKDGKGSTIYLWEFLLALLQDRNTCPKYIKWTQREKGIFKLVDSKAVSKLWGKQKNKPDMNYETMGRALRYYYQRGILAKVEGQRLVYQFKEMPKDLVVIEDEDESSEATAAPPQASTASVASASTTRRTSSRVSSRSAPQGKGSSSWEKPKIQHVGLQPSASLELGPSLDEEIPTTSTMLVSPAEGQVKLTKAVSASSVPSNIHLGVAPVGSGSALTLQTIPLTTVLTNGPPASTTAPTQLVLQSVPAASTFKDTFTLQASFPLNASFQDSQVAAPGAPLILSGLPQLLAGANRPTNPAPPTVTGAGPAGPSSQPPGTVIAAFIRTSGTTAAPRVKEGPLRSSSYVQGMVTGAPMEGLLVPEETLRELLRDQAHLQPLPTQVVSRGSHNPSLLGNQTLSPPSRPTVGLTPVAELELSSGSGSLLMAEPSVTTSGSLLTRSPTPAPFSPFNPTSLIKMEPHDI
UniProt Q01892: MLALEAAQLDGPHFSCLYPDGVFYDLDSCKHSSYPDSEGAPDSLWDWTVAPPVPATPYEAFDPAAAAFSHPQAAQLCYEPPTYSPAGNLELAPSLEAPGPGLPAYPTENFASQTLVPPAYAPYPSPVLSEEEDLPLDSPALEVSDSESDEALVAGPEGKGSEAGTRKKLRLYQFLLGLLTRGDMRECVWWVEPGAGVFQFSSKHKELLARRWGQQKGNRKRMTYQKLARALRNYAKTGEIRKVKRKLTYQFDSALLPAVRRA

Targets include ETV5 (UniProt P41161); ELF4 (UniProt Q99607); SPIB (UniProt Q01892).
Assay in all cases: DAPPL (digital affinity profiling via proximity ligation, sequencing)
What all share (details): 10 mM Tris-HCl pH 7.5, 50 mM NaCl, 1 mM DTT, 4% glycerol, room temperature, 30 min; GST-TFs on glutathione beads, 16-mer random dsDNA library, 0.1% …; high values mean tight binding; double strand, one strand shown; scale: fold enrichment (6-mer frequency, TF over GST control)

The target in a further assay is T1, ETV2 (UniProt O00321).
T1 sequence: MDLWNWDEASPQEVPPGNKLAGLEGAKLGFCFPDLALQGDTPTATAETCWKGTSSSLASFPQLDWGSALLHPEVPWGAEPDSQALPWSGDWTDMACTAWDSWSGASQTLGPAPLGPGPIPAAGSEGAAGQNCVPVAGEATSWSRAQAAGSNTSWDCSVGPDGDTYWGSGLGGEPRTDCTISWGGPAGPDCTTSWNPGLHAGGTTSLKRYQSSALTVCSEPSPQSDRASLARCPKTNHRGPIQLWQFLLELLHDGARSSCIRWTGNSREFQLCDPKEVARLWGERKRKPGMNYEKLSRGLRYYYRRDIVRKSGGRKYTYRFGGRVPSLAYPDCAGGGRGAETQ

The next assay has as its target T2, ETV3L (UniProt Q6ZN32).
T2 sequence: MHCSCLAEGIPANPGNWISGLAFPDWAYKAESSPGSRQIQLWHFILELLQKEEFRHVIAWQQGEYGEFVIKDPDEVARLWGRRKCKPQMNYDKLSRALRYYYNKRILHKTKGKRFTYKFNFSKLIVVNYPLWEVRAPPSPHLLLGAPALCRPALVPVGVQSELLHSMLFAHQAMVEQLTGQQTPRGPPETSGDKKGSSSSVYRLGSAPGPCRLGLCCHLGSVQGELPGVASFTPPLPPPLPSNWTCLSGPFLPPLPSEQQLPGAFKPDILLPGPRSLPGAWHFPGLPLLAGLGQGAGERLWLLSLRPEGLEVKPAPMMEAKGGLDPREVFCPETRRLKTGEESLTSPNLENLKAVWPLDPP

The next assay concerns the target T3, EHF (UniProt Q9NZC4).
T3 sequence: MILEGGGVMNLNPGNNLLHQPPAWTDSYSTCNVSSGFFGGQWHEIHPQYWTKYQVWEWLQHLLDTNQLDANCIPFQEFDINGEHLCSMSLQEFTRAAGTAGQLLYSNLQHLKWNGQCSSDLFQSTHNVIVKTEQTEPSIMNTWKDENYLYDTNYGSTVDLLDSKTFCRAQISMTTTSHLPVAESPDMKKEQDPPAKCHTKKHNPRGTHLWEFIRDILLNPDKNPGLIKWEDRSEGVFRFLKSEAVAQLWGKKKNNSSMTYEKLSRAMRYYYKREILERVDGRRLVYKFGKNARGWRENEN

The entries are a selection whose mix differs from that of the whole data set. At the low end of the ranking the order means little.

Turning to TGTTGC, the binding signal with ETV5 is 1.35; in the assay with ELF4, 1.34.
On to GCAGCC, for which the binding signal with ETV5 amounted to 0.941; with ELF4, 0.929; with ETV2, 0.935; with ETV3L, 0.982.
On to TTCGTC, for which the binding signal in the assay with ETV5 was 1.33; with ELF4, 1.29.
Turning to TGGTAA, the binding signal with ETV5 was 1.23; with ELF4, 1.23; with ETV2 it was 1.3.
TCCCGA: the binding signal with ETV5 was 1.37; with ELF4, 1.25; in the assay with ETV2 it was 0.993.
Take AGGACC: the binding signal with ETV5 came to 1.04; with ELF4, 1.06.
Regarding TTGGAT, the binding signal in the assay with EHF amounted to 0.934; in the assay with ETV5 it was 0.955; with ELF4, 0.995; with ETV2, 0.98; with ETV3L, 0.976.
For the sequence GATCCA, the binding signal in the assay with ETV5 amounted to 0.992; with ELF4, 1.05; with ETV2, 1; in the assay with ETV3L it was 1.06.
For TCTGAC, the binding signal in the assay with ETV5 amounted to 1.15; with ELF4 it was 1.35.
Take AAGATT: the binding signal amounted to 1.25 with ETV5, 1.22 with ELF4 and 1.16 in the assay with ETV2.
GATTAA: the binding signal with ETV5 is 0.993; with ELF4, 0.984; with ETV2 it was 1.11.
Regarding CGTTGG, the binding signal with EHF was 0.869; with SPIB it was 0.975; in the assay with ETV5, 0.918; with ELF4, 0.953; in the assay with ETV2 it was 0.805; with ETV3L, 0.982.
In the case of GATCAA, the binding signal in the assay with EHF is 0.987; with ETV5, 0.979; in the assay with ELF4 it was 0.991; in the assay with ETV2, 1.19.
Regarding CAAAGT, the binding signal worked out at 0.886 in the assay with EHF; 1.04 with SPIB; 0.968 in the assay with ETV5; 1.03 in the assay with ELF4; 0.997 with ETV2; 0.948 with ETV3L.
For the sequence TGTTGG, the binding signal with EHF was found to be 0.962; in the assay with SPIB it was 0.755; in the assay with ETV5, 0.931; with ELF4 it was 0.897; with ETV2, 0.933; with ETV3L, 0.891.
TGGGTA: the binding signal with SPIB came out at 0.966; with ETV5, 1.02; with ELF4, 0.928; with ETV2 it was 1.14; with ETV3L, 0.959.
TTGGAA: the binding signal with EHF came out at 1.04; with SPIB it was 1; in the assay with ETV5, 0.97; in the assay with ELF4, 0.943; with ETV2, 1.02; with ETV3L, 0.922.
Consider CCAAGT, for which the binding signal amounted to 0.847 with EHF; 0.894 with SPIB; 0.963 in the assay with ETV5; 0.918 with ELF4; 0.962 in the assay with ETV2; 0.937 in the assay with ETV3L.
Consider ACAAAG, for which the binding signal was determined as 0.987 with EHF; 0.928 with SPIB; 0.987 in the assay with ETV5; 0.966 with ELF4; 0.985 with ETV2; 0.875 with ETV3L.
For GTTTGT, the binding signal with SPIB worked out at 0.95; with ETV5, 0.884; with ELF4, 0.969; in the assay with ETV2, 0.979; in the assay with ETV3L, 1.06.
For the sequence GCCTGT, the binding signal in the assay with EHF came out at 0.91; in the assay with SPIB it was 0.886; with ETV5, 0.9; with ELF4, 0.945; with ETV2, 0.908; with ETV3L, 0.88.
With GTGTAC, the binding signal with EHF was found to be 0.967; in the assay with SPIB, 0.839; with ETV5 it was 0.949; with ELF4 it was 0.946; in the assay with ETV2 it was 0.809; with ETV3L, 0.806.
Consider TCATCG, for which the binding signal came out at 1.05 with EHF, 1 with ETV5, 0.994 with ELF4 and 0.969 with ETV2.
The corresponding values for CGGGCT are 0.938, 0.888, 0.985 and 0.942.
As to TAGGTA, the binding signal with EHF was 0.974; in the assay with SPIB, 0.99; in the assay with ETV5, 0.995; with ELF4, 0.999; with ETV2 it was 0.956; with ETV3L it was 1.01.
For the sequence GTTGAT, the binding signal was 1.04 with EHF, 1.14 with ETV5, 1.15 with ELF4 and 0.958 with ETV2.
CATTGG: the binding signal with EHF is 1; with SPIB, 0.891; in the assay with ETV5, 0.932; in the assay with ELF4 it was 0.866; with ETV2 it was 0.813; with ETV3L, 0.978.
Take TGGATT: the binding signal with EHF came to 0.969; with ETV5 it was 1.06; with ELF4, 0.996; with ETV2, 0.918.
For the sequence GGCTTA, the binding signal amounted to 0.985 with SPIB; 1.03 with ETV5; 0.975 in the assay with ELF4; 0.91 in the assay with ETV2; 0.931 with ETV3L.
As for GTCCAA, the binding signal stood at 0.962 in the assay with EHF; 0.86 in the assay with SPIB; 0.912 in the assay with ETV5; 0.94 with ELF4; 0.957 in the assay with ETV2; 0.944 with ETV3L.
In the case of TAAAGG, the binding signal with EHF stood at 1.12; in the assay with ETV5, 0.976; with ELF4 it was 0.998; with ETV2, 0.965.
For the sequence AGTGTA, the binding signal amounted to 1.02 with EHF; 0.999 in the assay with SPIB; 1.05 with ETV5; 0.982 with ELF4; 0.915 with ETV2; 0.96 with ETV3L.
For the sequence CGCACA, the binding signal with EHF worked out at 1.03; with SPIB, 0.948; with ETV5, 0.949; with ELF4, 0.955; in the assay with ETV2, 0.987.
For the sequence AGGCCC, the binding signal turned out to be 0.863 with EHF; 0.919 in the assay with SPIB; 0.95 in the assay with ETV5; 0.983 with ELF4; 0.875 with ETV2; 0.865 in the assay with ETV3L.
Consider AGCTGA, for which the binding signal amounted to 0.994 with SPIB; 0.975 in the assay with ETV5; 1.01 in the assay with ELF4; 1.08 with ETV2; 0.972 in the assay with ETV3L.
For TCGCGT, in that order: 1.01, 0.919, 0.947, 0.991 and 0.967.
As for GTGACT, the binding signal with EHF is 0.903; in the assay with SPIB, 0.922; with ETV5, 0.922; in the assay with ELF4, 0.941; with ETV2, 0.762.
For the sequence ACTTGG, the binding signal with SPIB was found to be 1.25; with ETV5 it was 1.21; with ELF4 it was 1.31; with ETV2, 1.15; in the assay with ETV3L it was 1.15.
Turning to TAGATT, the binding signal with EHF was 1.24; in the assay with ETV5, 1.12; with ELF4 it was 1.19; in the assay with ETV2, 1.13.
For the sequence TGCACA, the binding signal with SPIB was 1.13; with ETV5, 1.13; in the assay with ELF4, 1.12; with ETV2, 1.15; with ETV3L, 1.13.
Consider CGCTCG, for which the binding signal was 1.12 in the assay with SPIB; 1.05 with ETV5; 1.17 with ELF4; 0.972 in the assay with ETV2; 0.94 with ETV3L.
As to GACGTT, the binding signal worked out at 0.978 with EHF; 0.904 in the assay with SPIB; 0.856 in the assay with ETV5; 0.944 with ELF4; 0.983 in the assay with ETV2; 0.94 with ETV3L.
As for TAAGCA, the binding signal worked out at 0.967 with EHF; 0.98 in the assay with SPIB; 0.895 in the assay with ETV5; 1.03 in the assay with ELF4; 0.988 with ETV2; 0.947 in the assay with ETV3L.
